These are yes or no findings as the source states them, for the method shown. Some binding calls cover weakened binding; strength is not graded here. Sequences can lack the tags named with a protein.
T1: human NPR3 (hNpr3) expressed on FreeStyle293 cells (human) (UniProt P17342)
T1 sequence: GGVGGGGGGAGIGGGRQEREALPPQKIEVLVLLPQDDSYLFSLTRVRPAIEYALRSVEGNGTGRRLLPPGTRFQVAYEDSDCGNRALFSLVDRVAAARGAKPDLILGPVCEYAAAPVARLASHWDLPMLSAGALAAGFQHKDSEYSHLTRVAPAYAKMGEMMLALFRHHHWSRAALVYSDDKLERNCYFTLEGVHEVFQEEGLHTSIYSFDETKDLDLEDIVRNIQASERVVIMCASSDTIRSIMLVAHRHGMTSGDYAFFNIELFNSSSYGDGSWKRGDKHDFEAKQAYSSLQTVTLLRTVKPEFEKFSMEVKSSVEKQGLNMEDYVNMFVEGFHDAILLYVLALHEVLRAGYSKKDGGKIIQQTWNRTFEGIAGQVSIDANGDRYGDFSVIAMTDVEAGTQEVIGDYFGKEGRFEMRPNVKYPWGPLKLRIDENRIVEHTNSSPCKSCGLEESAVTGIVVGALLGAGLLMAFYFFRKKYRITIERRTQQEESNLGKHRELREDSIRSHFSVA


Target: T1, human NPR3 (hNpr3) expressed on FreeStyle293 cells (human)
Test: competition with BK-/BC-mMusclin on hNpr3-transfected FreeStyle293 cells, single concentration; binding shown by displacement

Row | binding | Binder
1 | binds | His-Tyr-Cys-mMusclin (unlabeled) (ligand) MGSSHHHHHHSSGLVPYGCHMLASQEFGTASLQSPPTAREEKSATELSAKLLRLDDLVSLENDVFETKKKRSFSGFGSPLDRLSAGSVEHRGKQRKAVDHSKKRFGIPMDRIGRNRLSSSRG
2 | binds | C-terminal mMusclin (mCA) protein (peptide) SFSGFGSPLDRLSAGSVEHRGKQRKAVDHSKKRFGIPMDRIGRNRLSSSRG

From patent publication US20110104705A1, “Musclin receptor and use thereof” (Takeda Pharmaceutical Company Limited, priority 2006, published 2011)
